Measured values from the supplement of paper PMC6078165.
Values are relative to the signal before dosing, not to a vehicle control; the signal also falls without drug.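 Labels refer to human fibroblasts, largely primary: uterine (C12385, HUF), lung (H6013), bone (Hs27A), adrenal (HADF), skin (WS1), plus mammary HMF and breast cancer-associated Hs343T. Cancer lines are basal-like or mesenchymal-like triple-negative breast cancer. The paper counts as hits responses shifting over 3x the replicate standard deviation. The tissue of the other fibroblasts is not given here.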

System: MDAMB436
Test: relative JC-1 red fluorescence (viability) vs pre-drug, coculture with fibroblast (fraction); higher = more viable cancer cells
Details: 0.1 µM
Procedure: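 JC-1 labelled TNBC cells cocultured 1:1 (1,500 cells each) with CellTrace Violet stained primary or stromal fibroblasts in 384-well plates in FluoroBrite medium, treated with one of 42 anticancer drugs at 0.1, 1, 10 or 100 uM. JC-1 red fluorescence (mitochondrial integrity in cancer cells only) was read by plate reader every 8 h for 72 h. Values are normalised to each well's pre-drug value. The stock of one drug was tenfold lower, so its dose labels may be too high.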

CN(Cc1cnc2nc(N)nc(N)c2n1)c1ccc(C(=O)N[C@@H](CCC(=O)O)C(=O)O)cc1 [Methotrexate]
relative JC-1 red fluorescence
Details | 8 h | 16 h | 24 h | 32 h | 40 h | 48 h | 56 h | 64 h | 72 h
coculture fibroblast: C12385 | 0.7977 | 0.675 | 0.658 | 0.579 | 0.531 | 0.514 | 0.503 | 0.493 | 0.496
coculture fibroblast: H6013 | 0.856 | 0.7207 | 0.708 | 0.706 | 0.695 | 0.725 | 0.691 | 0.689 | 0.669
coculture fibroblast: H6019 | 0.69931 | 0.632 | 0.616 | 0.547 | 0.524 | 0.511 | 0.4864 | 0.471 | 0.4556
coculture fibroblast: H6076 | 0.738 | 0.674 | 0.667 | 0.641 | 0.625 | 0.615 | 0.6421 | 0.655 | 0.66
coculture fibroblast: H6231 | 0.753 | 0.6701 | 0.6535 | 0.572 | 0.554 | 0.517 | 0.5 | 0.485 | 0.469
coculture fibroblast: HADF | 0.81006 | 0.726 | 0.712 | 0.679 | 0.672 | 0.704 | 0.643 | 0.645 | 0.621
coculture fibroblast: HCFa | 0.845 | 0.776 | 0.732 | 0.726 | 0.667 | 0.671 | 0.621 | 0.627 | 0.591
coculture fibroblast: HCPF | 0.759 | 0.664 | 0.653 | 0.5839 | 0.571 | 0.537 | 0.522 | 0.508 | 0.493
coculture fibroblast: HHSteC | 0.836 | 0.764 | 0.748 | 0.721 | 0.72 | 0.743 | 0.689 | 0.68 | 0.635
coculture fibroblast: HMF | 0.725 | 0.667 | 0.66 | 0.617 | 0.605 | 0.572 | 0.582 | 0.565 | 0.565
coculture fibroblast: HPFa | 0.8528 | 0.767 | 0.73 | 0.682 | 0.666 | 0.682 | 0.616 | 0.613 | 0.575
coculture fibroblast: HUF | 0.8335 | 0.7108 | 0.6711 | 0.5995 | 0.54161 | 0.516 | 0.4948 | 0.482 | 0.476
coculture fibroblast: Hs5 | 0.766 | 0.666 | 0.664 | 0.6119 | 0.6058 | 0.5713 | 0.5924 | 0.573 | 0.5882
coculture fibroblast: Hs27A | 0.7968 | 0.715 | 0.695 | 0.672 | 0.651 | 0.722 | 0.646 | 0.646 | 0.592
coculture fibroblast: Hs343T | 0.697 | 0.638 | 0.617 | 0.564 | 0.53858 | 0.50886 | 0.5056 | 0.49863 | 0.4963
coculture fibroblast: WS1 | 0.78669 | 0.667 | 0.642 | 0.559 | 0.521 | 0.506 | 0.495 | 0.487 | 0.481
